# Hit rate of the full screen: of about 400,000 compounds, about 5,500 (1.4%) were called active. This list was built around the results that the source calls inconclusive (neither active nor inactive); the mix of calls is not that of the screen. Calls come from the whole dose curve; as a rule, active = well fitted cell-killing curve with a large enough effect; inconclusive = small, poorly fitted or top-dose-only effect, or effect the other way; inactive = flat fitted curve, though single readings scatter. Potencies of inconclusive entries are doubtful fits and often do not repeat.
# Test: qHTS assay for MDR1-selective chemotherapeutics: Primary screen using the parental adenocarcinoma cell KB-3-1; note: nearly all actives have a fitted effect of over 60% in size
# Details: KB-3-1 viability, CellTiter-Glo ATP luminescence, 72 h; series mostly up to 46.1 µM
# Summary of the method: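 KB-3-1 parental drug-naive adenocarcinoma cells in DMEM/10% FBS, incubated 72 h at 37 C with pin-transferred compounds across a concentration series. Viability by CellTiter-Glo luminescence; concentration-response curves fitted after normalization.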
# Potency is the fitted concentration of half-maximal effect.
row,Structure (SMILES),Potency
1,S=C(Nc1ccccc1)Nc1ccc(OCc2ccc(Cl)cc2Cl)cc1,inactive
2,Cc1cc(C(=O)Cn2nc(C(=O)O)c3ccccc3c2=O)c(C)n1CCc1ccc(F)cc1,"inconclusive: 29.1 µM [cytotoxic, single point]"
3,CSc1nc2[nH]c(=O)n(O)c(=O)c2n1Cc1ccccc1,"inconclusive: 29.1 µM [cytotoxic, single point]"
4,COc1ccc(CNS(=O)(=O)c2ccc3c(c2)CC(C)N3C(=O)C2CC2)cc1 (centres undefined),"inconclusive: 29.1 µM [cytotoxic, single point]"
5,Cc1ccc(CN2CCCn3nc(C(=O)NC(C)C)cc3C2=O)cc1,inactive
6,CC1CCCC(C)N1C(=C(Cl)Cl)C(=C1SCCS1)[N+](=O)[O-] (centres undefined),active: 25.9 µM
7,COc1cc(N=Nc2ccc(C(=O)N(C)C)cc2)c(C)cc1N,inactive
8,CCc1nc2ccc(C(=O)NC3CCN(Cc4ccccc4)CC3)cn2c1N(CC)Cc1cccc(Br)c1,"inconclusive: 29.1 µM [cytotoxic, single point]"
9,Cc1ccc(N2CCN(S(=O)(=O)c3cc(C(=O)Nc4cc(Cl)cc(Cl)c4)ccc3F)CC2C)cc1 (centres undefined),"inconclusive: 29.1 µM [cytotoxic, single point]"
10,CC(C)=CCc1c2c(c3occ(-c4ccc(O)cc4)c(=O)c3c1O)C=CC(C)(C)O2,"inconclusive: 29.1 µM [cytotoxic, single point]"
11,c1ccc(NCc2nc(-c3ccccc3)no2)cc1,inactive
12,CC1CCN(c2ccc(-c3cccc(NC(=O)C(F)(F)F)c3)nn2)CC1,"inconclusive: 9.2 µM [cytotoxic, partial curve]"
13,COc1cc(/C=N/Nc2nc3ccccc3s2)ccc1OC(=O)c1ccccc1F,"inconclusive: 20.6 µM [cytotoxic, single point]"
14,COC(=O)[C@@]12C[C@@H](CC(=O)NCC3CCCCC3)C(=O)N(Cc3cccc4ccccc34)C1=CCC(C)(C)C2,"inconclusive: 23.1 µM [cytotoxic, single point]"
15,CC(C)(CNc1ccc([N+](=O)[O-])cc1Cl)N1CCOCC1,"inconclusive: 32.6 µM [rising, single point]"
16,O=C(Nc1ccc(N2CCOCC2)cc1)Nc1ccc2nc(-c3ccco3)c(-c3ccco3)nc2c1,"inconclusive: 6.51 µM [cytotoxic, single point]"
17,CCC(C)NS(=O)(=O)c1ccc(S(=O)(=O)N2CC=C(c3ccc(F)cc3)CC2)cc1 (centres undefined),"inconclusive: 23.1 µM [cytotoxic, single point]"
18,CCC(=O)N1N=C(c2cccs2)CC1c1ccco1 (centres undefined),inactive
19,O=C(Nc1cccc(Cl)c1)c1ccc(F)c(S(=O)(=O)NCc2ccc3c(c2)OCO3)c1,"inconclusive: 16.4 µM [cytotoxic, partial curve]"
20,Cc1ccc(CNC(=O)c2cccc3c2C(=O)c2ccc(N4CCCCC4)cc2S3(=O)=O)cc1,"inconclusive: 4.61 µM [cytotoxic, partial curve]"
21,CC(C)(C)c1ccc(C(=O)N/C(=C\c2cccc([N+](=O)[O-])c2)C(=O)Nc2cccc(C(=O)O)c2)cc1,inactive
22,CC(C)N1C(=O)/C(=C\c2nc3ccccc3c(=O)n2-c2ccccc2)c2ccccc21,"inconclusive: 29.1 µM [cytotoxic, single point]"
23,COc1ccc(N2CCN(C(=O)CC34CC5CC(CC(C5)C3)C4)CC2)c([N+](=O)[O-])c1,"inconclusive: 29.1 µM [cytotoxic, single point]"

# Structures from the list above that contain two or more sulfur atoms (2):
row,Structure (SMILES),Potency
6,CC1CCCC(C)N1C(=C(Cl)Cl)C(=C1SCCS1)[N+](=O)[O-] (centres undefined),active: 25.9 µM
17,CCC(C)NS(=O)(=O)c1ccc(S(=O)(=O)N2CC=C(c3ccc(F)cc3)CC2)cc1 (centres undefined),"inconclusive: 23.1 µM [cytotoxic, single point]"

# 2 entries from above in a different format:
row | Structure (SMILES) | Potency
15 | CC(C)(CNc1ccc([N+](=O)[O-])cc1Cl)N1CCOCC1 | inconclusive: 32.6 µM [rising, single point]
16 | O=C(Nc1ccc(N2CCOCC2)cc1)Nc1ccc2nc(-c3ccco3)c(-c3ccco3)nc2c1 | inconclusive: 6.51 µM [cytotoxic, single point]

# The list continues:

row,Structure (SMILES),Potency
1,C=CCN(c1ccccc1)S(=O)(=O)c1cccc(C(=O)NCc2ccco2)c1,inactive
2,CCOc1cc(N2CCOCC2)c(OCC)cc1NC(=O)C1=COCCO1,"inconclusive: 29.1 µM [rising, single point]"
3,CCN1CCCC1CNC(=O)C1CCN(Cc2nc(-c3cccc(Br)c3)oc2C)CC1 (centres undefined),"inconclusive: 29.1 µM [cytotoxic, single point]"
4,C=C1C=C(C(F)F)n2ncc(C(=O)N3CCc4ccccc4C3)c2N1,"inconclusive: 23.1 µM [rising, partial curve, poor fit]"
5,CC(C)COP(=O)(OCC(C)C)C(Nc1ccccc1)c1ccc2c(c1)OCO2 (centres undefined),"inconclusive: 25.9 µM [cytotoxic, single point]"
6,Nc1ccc2c(c1Cl)C(=O)c1ccc(N)c(Cl)c1C2=O,inactive
7,Oc1cccc(-c2sc3ccccc3c2-c2ccc(OCCN3CCCCC3)cc2)c1,"inconclusive: 29.1 µM [cytotoxic, single point]"
8,CN(C)c1cccc(C(=O)Nc2cc(C(F)(F)F)ccc2-n2cnc3ccccc32)c1,inactive
9,CCOc1ccc(S(=O)(=O)NN=C(C)c2cccnc2)cc1,inactive
10,CCOC(=O)c1ccc(NC(=S)N(CCCN2CCN(C)CC2)Cc2cccs2)cc1,inactive
11,CC(C)(C)NC(=O)Cn1c(SCC(N)=O)nc2ccccc21,inactive
12,CCOC(=O)Nc1cc2c(c(N)n1)N=C(c1ccccc1)CN2,active: 0.184 µM
13,O=S(=O)(c1ccc(Cl)cc1)N1c2ccccc2Oc2nc3ccccc3nc21,"inconclusive: 23.1 µM [cytotoxic, single point]"
14,Cc1cc(C)c(C(N)=O)c(SCC(=O)c2cc(C)c(C)cc2C)n1,inactive
15,Cc1ccc(C)c(N2CCN(C(=O)CCS(=O)(=O)c3ccc4c(c3)NC(=O)C(C)S4)CC2)c1 (centres undefined),"inconclusive: 9.2 µM [cytotoxic, partial curve]"
16,C/C(=N\OCC(=O)N/N=C/c1ccccc1O)c1cccs1,"inconclusive: 23.1 µM [cytotoxic, partial curve, poor fit]"
17,COc1cccc(C(=O)OCC(=O)NC2CCCc3ccccc32)c1O (centres undefined),"inconclusive: 20.6 µM [rising, single point]"
18,O=C(CN1CCN(Cc2cccc(F)c2)CC1)NCc1ccccc1,"inconclusive: 23.1 µM [cytotoxic, single point]"
19,CCN(CC)c1ccc(NC(=O)c2ccccc2F)cc1,active: 16.4 µM
20,Cc1ccc(CNC(=O)CSCc2nc(-c3ccc(Cl)cc3)oc2C)cc1,"inconclusive: 32.6 µM [cytotoxic, single point]"
21,COc1ccc(S(=O)(=O)Nc2ccccc2C(N)=O)cc1OC,inactive
22,CC1(C(=O)NCc2ccco2)Cc2c(-c3ccc(C(N)=O)cc3)ccnc2O1 (centres undefined),active: 18.4 µM
23,CC(C)CCNC(=O)c1cnn2c(C(F)(F)F)cc(-c3ccco3)nc12,"inconclusive: 35.5 µM [cytotoxic, single point]"

row,Structure (SMILES),Potency
1,CSC1=NC(C)(C)C=C(/C=C/c2c(Cl)cccc2Cl)N1,inactive
2,Cc1ccc2nc(-c3ccc(NC(=O)COC(=O)c4ccc(Br)o4)cc3)sc2c1,"inconclusive: 29.1 µM [cytotoxic, single point]"
3,CCOc1ccc(CCN2C(=S)N([C@@H](CC(C)C)CN3CCCC3CN3C(=S)NC[C@@H]3Cc3ccccc3)C[C@@H]2CC(C)C)cc1 (some centres undefined),"inconclusive: 29.1 µM [cytotoxic, single point]"
4,N#CC1=C(SCc2ccccc2)NC(=O)CC1c1ccco1 (centres undefined),inactive
5,COc1ccc(-c2cc(C(=O)Nc3cccc(C(C)=O)c3)no2)cc1OC,inactive
6,CN=c1scc(C)n1/N=C/c1ccc(O)cc1O,"inconclusive: 16.4 µM [cytotoxic, partial curve, poor fit]"
7,COC(=O)c1ccccc1NC(=O)COCc1cc(-c2cccs2)on1,inactive
8,C/C(=N\NC(=O)c1c(Br)c(C)nn1C)c1cccc(NC(=O)c2ccccc2C)c1,"inconclusive: 25.9 µM [rising, single point]"
9,CCOC(=O)Nc1c(C(=O)OC)[nH]c2cc(OC)ccc12,active: 20.6 µM
10,CN(Cc1ccccc1)C(=O)c1ccc(Nc2nc(C(N)COCc3ccccc3)cs2)nc1 (centres undefined),inactive
11,C=CCNC(=O)c1onc(CSc2ccc(F)cc2)c1C(=O)NCC=C,"inconclusive: 16.4 µM [cytotoxic, partial curve, poor fit]"
12,N#Cc1cc2cc(Cl)ccc2[nH]c1=O,active: 4.61 µM
13,CCCc1nc2c([nH]1)c(=O)n(C)c(=O)n2C,inactive
14,CN(C)c1ccc(/C=C/c2ccncc2)cc1,"inconclusive: 18.4 µM [rising, partial curve]"
15,COC(=O)c1[nH]c2cc(C)ccc2c1NC(=O)CN1CCN(c2ccccc2OC)CC1,"inconclusive: 29.1 µM [cytotoxic, single point]"
16,N#Cc1ccccc1OCCCN1CCC(Cc2ccccc2)CC1,inactive
17,CCOc1ccc(NS(=O)(=O)c2ccc(Cl)c(C(=O)N(C)Cc3cccnc3)c2)cc1,"inconclusive: 32.6 µM [cytotoxic, single point]"
18,CC(C)CCCCCCNC(=S)Nc1ccc(S(=O)(=O)N2CCOCC2)cc1,"inconclusive: 29.1 µM [cytotoxic, single point]"
19,O=C(Nc1nnc(C2=COCCO2)o1)c1ccc([N+](=O)[O-])s1,"inconclusive: 29.1 µM [cytotoxic, single point]"
20,COc1ccc2c(CCNC(=O)Nc3ccccc3)c[nH]c2c1,"inconclusive: 20.6 µM [cytotoxic, single point]"
21,COc1ccc(Cn2c(-c3ccc(Br)cc3)c[n+]3ccccc23)cc1,"inconclusive: 3.66 µM [cytotoxic, partial curve, poor fit]"
22,CCc1nc2c(cnn2-c2ccc(C)cc2)c(=O)n1-c1ccc(C)cc1,"inconclusive: 23.1 µM [cytotoxic, partial curve, poor fit]"
23,CCOC(=O)[C@]12CCC=C1N(Cc1cccc3ccccc13)C(=O)[C@H](CC(=O)N1CCOCC1)C2,inactive
